Here are results for one molecule from patent publication US20220192985A1, “METHOD OF PRODUCTION OF A COMPOSITE OF YEAST-DERIVED BETA GLUCAN PARTICLE WITH INCORPORATED POORLY-WATER-SOLUBLE LOW-MOLECULAR-WEIGHT COMPOUND, PHARMACEUTICAL PREPARATION AND USE THEREOF” (VYSOKA SKOLA CHEMICKO-TECHNOLOGICKA V PRAZE, priority 2019, published 2022).

Common to all, as to assay type: physicochemical
Series [1] in a line: Powder rheology shear test (FT4), Example 8. The note with it: pre-sheared at 3 kPa; ATO/GP mass ratio 25%. As for the experimental part:
(§1) The moisture (water content) of the samples was firstly measure using a moisture analysis balance (simple test, 100° C., 5 mg initial mass, infrared drying). The samples, ATO/GP-SD, ATO/GP-RE and crude ATO, contained 5% wt., 3% wt. and 2.5% wt. of moisture respectively. Afterwards, the samples were exposed to laboratory humidity (21° C. and 28% relative humidity), for 24 hours and the moisture content was measured again (9% wt. for ATO/GP-SD, 9% for ATO/GP-RE, and 5% for ATO). The samples were then dried for 24 hours in the oven with very-slowly-moving fan at 30° C. Finally, a shear test (FIG. 15) was performed on the samples a Powder Rheometer FT4 (pre-sheared at 3 kPa consolidation and initial mass of 0.6-0.7 g).

Series [2] is described as follows: Moisture (water content), moisture analysis balance. The conditions noted are these: 21° C. and 28% relative humidity, 24 hours. As to the method: as §1
A short description of series [3]: Powder rheology shear test (FT4), Comparative Example 9. The note with it: pre-sheared at 3 kPa; mass ratio 10%. As for the experimental part:
Shear tests were performed on the samples a Powder Rheometer FT4 (pre-sheared at 3 kPa consolidation and initial mass of 0.6-0.7 g). The tests were carried out per duplicate under laboratory conditions (21.2±0.7° C. and 35.1±2.0% relative humidity).

In the case of `CC(C)c1c(C(=O)Nc2ccccc2)c(-c2ccccc2)c(-c2ccc(F)cc2)n1CC[C@@H](O)C[C@@H](O)CC(=O)O` [Crude ATO, atorvastatin], the “UYS (Unconfined Yield Strength)” value in series [1] turned out to be 4.27 kPa; in series [3] it was 4.57 ± 1.07 kPa. Moreover, the “moisture content after exposure to laboratory humidity” value in series [2] was 5 % wt.
